Experimental data taken from the supplement of paper PMC10849652.
The other results are listed elsewhere or left out.

The chains behind the UniProt entries cited, without tags or fusion partners. Where a name states a change or a piece, a line headed by the entry shows the natural chain unless it says otherwise.
UniProt Q13049: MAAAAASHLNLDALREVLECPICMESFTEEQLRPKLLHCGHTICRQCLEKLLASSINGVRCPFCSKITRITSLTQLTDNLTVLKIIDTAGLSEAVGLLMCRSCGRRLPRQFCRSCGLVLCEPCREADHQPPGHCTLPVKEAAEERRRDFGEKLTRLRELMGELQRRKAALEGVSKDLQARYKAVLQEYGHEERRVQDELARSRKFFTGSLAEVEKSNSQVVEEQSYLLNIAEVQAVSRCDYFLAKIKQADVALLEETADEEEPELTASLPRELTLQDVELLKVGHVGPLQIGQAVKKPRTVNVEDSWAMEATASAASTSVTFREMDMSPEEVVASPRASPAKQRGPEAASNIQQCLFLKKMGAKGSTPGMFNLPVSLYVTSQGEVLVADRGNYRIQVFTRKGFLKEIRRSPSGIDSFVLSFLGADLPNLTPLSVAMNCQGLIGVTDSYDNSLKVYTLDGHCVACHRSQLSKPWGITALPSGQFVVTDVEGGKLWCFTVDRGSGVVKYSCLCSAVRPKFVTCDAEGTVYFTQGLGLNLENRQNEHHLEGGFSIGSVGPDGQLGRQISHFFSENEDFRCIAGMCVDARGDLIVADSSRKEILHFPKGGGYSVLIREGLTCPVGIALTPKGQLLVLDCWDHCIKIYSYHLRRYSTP
UniProt Q14258, whole entry, looked up: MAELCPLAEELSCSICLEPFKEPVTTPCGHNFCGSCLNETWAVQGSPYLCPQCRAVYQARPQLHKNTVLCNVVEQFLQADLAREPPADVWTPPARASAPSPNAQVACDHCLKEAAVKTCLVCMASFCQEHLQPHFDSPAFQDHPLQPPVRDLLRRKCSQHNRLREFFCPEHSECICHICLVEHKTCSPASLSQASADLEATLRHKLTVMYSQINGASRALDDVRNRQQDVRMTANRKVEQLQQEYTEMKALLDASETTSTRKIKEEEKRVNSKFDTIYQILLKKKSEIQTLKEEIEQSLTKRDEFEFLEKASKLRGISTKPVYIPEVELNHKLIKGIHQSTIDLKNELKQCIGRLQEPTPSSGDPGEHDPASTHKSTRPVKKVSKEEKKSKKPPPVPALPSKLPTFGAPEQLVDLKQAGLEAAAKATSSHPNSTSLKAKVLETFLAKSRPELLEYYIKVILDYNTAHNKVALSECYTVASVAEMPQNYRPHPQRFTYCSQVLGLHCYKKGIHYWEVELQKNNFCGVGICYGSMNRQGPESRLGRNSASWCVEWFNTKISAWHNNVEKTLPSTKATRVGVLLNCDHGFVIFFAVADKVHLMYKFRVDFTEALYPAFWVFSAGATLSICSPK
UniProt P60174, whole entry, looked up: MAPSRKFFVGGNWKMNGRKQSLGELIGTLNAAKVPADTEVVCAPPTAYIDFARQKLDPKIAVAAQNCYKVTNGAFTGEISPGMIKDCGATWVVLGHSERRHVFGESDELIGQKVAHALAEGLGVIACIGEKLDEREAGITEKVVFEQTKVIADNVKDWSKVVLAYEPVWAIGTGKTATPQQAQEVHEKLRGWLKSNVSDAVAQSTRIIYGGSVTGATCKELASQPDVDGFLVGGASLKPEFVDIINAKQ
UniProt Q7Z2T5: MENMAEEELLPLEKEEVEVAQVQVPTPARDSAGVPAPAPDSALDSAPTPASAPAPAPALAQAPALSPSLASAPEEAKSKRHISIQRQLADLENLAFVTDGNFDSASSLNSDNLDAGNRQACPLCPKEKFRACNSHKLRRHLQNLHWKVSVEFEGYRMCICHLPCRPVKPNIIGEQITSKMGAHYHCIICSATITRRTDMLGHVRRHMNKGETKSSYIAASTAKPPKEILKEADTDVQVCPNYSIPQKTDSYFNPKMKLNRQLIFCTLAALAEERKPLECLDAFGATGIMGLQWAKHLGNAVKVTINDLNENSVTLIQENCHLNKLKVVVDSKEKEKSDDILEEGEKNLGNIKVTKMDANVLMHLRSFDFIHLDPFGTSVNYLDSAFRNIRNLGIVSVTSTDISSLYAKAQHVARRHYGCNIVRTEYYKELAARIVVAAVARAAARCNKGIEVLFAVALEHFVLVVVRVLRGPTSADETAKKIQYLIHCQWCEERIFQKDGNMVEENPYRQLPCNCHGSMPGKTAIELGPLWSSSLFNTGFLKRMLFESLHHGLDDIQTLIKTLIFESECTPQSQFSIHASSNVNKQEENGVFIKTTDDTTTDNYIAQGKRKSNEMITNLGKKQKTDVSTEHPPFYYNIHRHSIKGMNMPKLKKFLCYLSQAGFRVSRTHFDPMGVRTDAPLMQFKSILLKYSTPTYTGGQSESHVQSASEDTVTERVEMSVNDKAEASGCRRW
UniProt O60704: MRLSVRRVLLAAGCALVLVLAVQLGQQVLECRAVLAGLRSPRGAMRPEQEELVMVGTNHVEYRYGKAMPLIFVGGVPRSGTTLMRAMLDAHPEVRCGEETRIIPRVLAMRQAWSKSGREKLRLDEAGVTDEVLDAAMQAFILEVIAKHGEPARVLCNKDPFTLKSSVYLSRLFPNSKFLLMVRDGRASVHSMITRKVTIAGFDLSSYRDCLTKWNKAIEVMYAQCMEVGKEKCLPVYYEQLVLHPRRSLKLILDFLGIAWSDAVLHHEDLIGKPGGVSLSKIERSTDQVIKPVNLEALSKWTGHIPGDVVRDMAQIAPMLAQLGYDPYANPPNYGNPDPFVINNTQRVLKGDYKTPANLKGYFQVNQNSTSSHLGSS
UniProt O75648: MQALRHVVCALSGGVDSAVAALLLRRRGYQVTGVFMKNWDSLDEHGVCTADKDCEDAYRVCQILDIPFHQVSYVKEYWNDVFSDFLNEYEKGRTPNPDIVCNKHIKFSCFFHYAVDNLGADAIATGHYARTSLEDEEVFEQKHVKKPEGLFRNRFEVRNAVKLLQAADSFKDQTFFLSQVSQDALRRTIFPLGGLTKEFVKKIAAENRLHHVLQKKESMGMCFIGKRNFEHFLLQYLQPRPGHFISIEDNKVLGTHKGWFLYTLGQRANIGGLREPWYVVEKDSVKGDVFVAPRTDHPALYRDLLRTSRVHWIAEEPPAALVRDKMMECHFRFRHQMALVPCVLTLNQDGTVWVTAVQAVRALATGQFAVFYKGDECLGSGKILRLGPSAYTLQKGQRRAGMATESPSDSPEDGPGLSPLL
UniProt Q9BQ61: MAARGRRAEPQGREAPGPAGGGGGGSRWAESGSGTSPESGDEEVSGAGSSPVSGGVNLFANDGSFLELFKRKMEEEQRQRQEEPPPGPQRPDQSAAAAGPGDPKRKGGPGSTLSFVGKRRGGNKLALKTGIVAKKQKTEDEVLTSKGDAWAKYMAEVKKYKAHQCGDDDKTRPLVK
UniProt Q9NS69: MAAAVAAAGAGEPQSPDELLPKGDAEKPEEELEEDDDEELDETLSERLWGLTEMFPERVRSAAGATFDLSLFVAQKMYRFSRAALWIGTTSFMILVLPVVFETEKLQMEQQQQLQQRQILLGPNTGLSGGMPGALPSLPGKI
UniProt Q9P0U1: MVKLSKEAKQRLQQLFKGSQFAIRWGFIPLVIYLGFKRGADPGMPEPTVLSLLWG
UniProt Q9NUP7: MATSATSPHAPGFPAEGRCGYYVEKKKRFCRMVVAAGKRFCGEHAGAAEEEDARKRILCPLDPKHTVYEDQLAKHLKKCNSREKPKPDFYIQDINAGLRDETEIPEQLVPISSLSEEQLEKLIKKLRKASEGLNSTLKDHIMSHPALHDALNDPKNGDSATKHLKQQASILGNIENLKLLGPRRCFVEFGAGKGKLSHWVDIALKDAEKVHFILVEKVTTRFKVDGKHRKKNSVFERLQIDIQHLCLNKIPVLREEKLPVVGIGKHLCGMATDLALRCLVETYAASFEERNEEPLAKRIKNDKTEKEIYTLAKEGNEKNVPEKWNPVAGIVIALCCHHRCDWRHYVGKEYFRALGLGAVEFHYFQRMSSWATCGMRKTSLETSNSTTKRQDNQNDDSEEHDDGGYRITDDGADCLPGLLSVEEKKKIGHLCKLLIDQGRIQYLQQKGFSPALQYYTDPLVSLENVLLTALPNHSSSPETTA
UniProt Q15714: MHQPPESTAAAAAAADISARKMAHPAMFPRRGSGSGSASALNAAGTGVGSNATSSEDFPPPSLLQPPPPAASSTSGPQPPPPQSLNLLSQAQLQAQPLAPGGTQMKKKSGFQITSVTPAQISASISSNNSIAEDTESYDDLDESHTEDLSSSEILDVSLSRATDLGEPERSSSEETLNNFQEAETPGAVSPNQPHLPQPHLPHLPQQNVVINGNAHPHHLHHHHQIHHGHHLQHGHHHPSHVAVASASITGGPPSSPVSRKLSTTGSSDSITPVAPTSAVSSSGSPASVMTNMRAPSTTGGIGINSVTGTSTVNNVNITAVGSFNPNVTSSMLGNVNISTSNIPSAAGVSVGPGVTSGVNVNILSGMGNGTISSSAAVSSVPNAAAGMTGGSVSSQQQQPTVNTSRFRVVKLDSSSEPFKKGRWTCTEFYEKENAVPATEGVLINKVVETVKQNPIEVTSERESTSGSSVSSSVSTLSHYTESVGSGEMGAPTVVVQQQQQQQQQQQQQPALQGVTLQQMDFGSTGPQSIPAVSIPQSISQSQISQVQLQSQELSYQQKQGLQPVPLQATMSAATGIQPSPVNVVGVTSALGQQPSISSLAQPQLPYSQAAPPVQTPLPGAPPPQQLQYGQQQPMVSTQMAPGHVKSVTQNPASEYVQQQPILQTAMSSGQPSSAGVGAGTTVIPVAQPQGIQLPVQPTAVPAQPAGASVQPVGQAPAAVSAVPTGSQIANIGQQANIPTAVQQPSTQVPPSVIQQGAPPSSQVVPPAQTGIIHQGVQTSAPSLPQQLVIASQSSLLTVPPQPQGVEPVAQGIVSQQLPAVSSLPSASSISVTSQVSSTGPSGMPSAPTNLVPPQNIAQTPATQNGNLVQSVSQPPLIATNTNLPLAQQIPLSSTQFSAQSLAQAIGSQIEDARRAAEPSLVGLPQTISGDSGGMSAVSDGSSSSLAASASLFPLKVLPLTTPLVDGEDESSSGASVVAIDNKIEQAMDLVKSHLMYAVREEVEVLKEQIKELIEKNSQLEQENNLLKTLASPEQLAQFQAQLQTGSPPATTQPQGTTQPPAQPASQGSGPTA
UniProt P20333, whole entry, looked up: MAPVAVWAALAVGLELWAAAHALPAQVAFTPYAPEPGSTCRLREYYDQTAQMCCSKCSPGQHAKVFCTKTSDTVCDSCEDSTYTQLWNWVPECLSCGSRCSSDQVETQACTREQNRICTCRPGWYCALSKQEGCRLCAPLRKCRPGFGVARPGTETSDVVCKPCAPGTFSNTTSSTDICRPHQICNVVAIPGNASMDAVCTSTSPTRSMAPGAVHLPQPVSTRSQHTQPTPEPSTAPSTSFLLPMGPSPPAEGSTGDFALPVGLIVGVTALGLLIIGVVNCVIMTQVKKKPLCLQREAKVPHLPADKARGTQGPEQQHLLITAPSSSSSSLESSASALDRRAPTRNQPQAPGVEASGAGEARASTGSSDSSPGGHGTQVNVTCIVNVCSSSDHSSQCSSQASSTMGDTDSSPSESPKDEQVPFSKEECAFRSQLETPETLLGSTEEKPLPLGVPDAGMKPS
UniProt Q86SZ2: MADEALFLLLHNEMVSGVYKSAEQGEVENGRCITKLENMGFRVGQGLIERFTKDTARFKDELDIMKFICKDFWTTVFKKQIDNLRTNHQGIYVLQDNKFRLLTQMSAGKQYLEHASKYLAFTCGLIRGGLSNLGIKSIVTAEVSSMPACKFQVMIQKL
UniProt Q92973: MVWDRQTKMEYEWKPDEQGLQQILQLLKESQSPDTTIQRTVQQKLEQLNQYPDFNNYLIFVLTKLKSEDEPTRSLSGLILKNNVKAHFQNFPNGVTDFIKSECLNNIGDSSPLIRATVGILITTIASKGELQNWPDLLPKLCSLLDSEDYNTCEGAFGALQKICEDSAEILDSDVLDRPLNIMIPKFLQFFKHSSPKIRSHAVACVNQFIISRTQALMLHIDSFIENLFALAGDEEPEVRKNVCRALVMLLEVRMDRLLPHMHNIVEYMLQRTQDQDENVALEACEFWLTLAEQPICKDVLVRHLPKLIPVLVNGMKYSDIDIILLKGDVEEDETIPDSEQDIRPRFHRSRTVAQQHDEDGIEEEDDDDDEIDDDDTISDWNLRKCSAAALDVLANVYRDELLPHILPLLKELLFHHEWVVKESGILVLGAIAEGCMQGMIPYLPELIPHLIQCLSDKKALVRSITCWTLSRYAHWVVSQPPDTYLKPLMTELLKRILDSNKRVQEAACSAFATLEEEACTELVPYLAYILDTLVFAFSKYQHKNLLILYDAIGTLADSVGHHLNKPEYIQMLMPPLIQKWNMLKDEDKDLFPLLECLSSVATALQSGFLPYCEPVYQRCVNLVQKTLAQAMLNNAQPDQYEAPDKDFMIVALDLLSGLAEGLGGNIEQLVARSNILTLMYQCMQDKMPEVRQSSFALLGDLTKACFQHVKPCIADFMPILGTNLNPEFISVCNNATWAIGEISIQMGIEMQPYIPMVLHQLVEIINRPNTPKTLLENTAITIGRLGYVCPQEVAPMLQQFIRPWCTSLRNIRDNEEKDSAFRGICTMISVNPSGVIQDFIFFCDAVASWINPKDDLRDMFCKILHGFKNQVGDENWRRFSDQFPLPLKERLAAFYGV
UniProt Q8N4H5: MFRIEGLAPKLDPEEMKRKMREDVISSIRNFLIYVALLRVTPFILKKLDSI

What was measured:
Experiment in all cases: log2 fold change, soluble protein after heating vs DMSO (PISA); higher = thermal stabilisation; K562 cells, 10 uM, 30 min; active = over 0.2 and 3.5 SD of the protein, either way, in both replicates (recomputed)
[1] = compound: CC1=C(C=C(C=C1)NC(=O)C2=CC(=CC=C2)C(C)(C)C#N)NC3=CC4=C(C=C3)N=CN(C4=O)C
Method in brief: (§1)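 Quantification of soluble protein used TMTpro 16plex LC-MS/MS, with channel sums equalised. Samples were the supernatant after 21,000xg for 90 min of pooled aliquots from K562 cells (2×10^6 cells/mL) treated with 10 μM compound for 30 min, heated for 3 min over 48°C-58°C, and extracted in PBS with 0.5% NP-40 at 4°C. Values, from duplicates, describe thermal stability against control samples on a log2 fold-change scale.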

[2] = compound: CC1=C(C=C(C=C1)NC(=O)C2=CC(=CC=C2)N(C)C)NC(=O)C3=CC=C(C=C3)O
Method in brief: as §1

[3] = compound: CC1=CC=C(C=C1)SC2=C3C=C(SC3=CN=C2)C(=O)N
Method in brief: as §1

[4] = compound: CC1=NC(=CC=C1)C2=C(N=C(N2)C(C)(C)C)C3=CC4=NC=CN=C4C=C3
Method in brief: as §1

Nexturastat A = compound: CCCCN(Cc1ccc(C(=O)NO)cc1)C(=O)Nc1ccccc1 [Nexturastat A]
Method in brief: as §1

vemurafenib = compound: CCCS(=O)(=O)Nc1ccc(F)c(C(=O)c2c[nH]c3ncc(-c4ccc(Cl)cc4)cc23)c1F [vemurafenib]
Method in brief: as §1

[5] = compound: CCCS(=O)(=O)Nc1ccc(F)c(C(=O)c2c[nH]c3ncc(Cl)cc23)c1F
Method in brief: as §1

[6] = compound: CCCc1cc(C)[nH]c(=O)c1CNC(=O)c1cc(-c2ccnc(N3CCN(C)CC3)c2)cc2c1cnn2C(C)C
Method in brief: as §1

givinostat = compound: CCN(CC)Cc1ccc2cc(COC(=O)Nc3ccc(C(=O)NO)cc3)ccc2c1 [givinostat]
Method in brief: as §1

barasertib = compound: CCN(CCCOc1ccc2c(Nc3cc(CC(=O)Nc4cccc(F)c4)[nH]n3)ncnc2c1)CCOP(=O)(O)O [barasertib]
Method in brief: as §1

Measured: log2 fold change

TRRAP (UniProt Q9Y4A5)
inactive: [1] 0 | [2] 0.029 | [3] -0.01 | [4] -0.006 | Nexturastat A -0.028 | vemurafenib -0.021 | [5] 0.002 | [6] -0.024 | givinostat -0.014 | barasertib -0.005

TRIM32 (UniProt Q13049)
inactive: [1] 0.04 | [2] 0.239 | [3] -0.016 | [4] 0.003 | Nexturastat A -0.013 | vemurafenib 0.106 | [5] -0.059 | [6] -0.282 | givinostat -0.003 | barasertib -0.015

TRIM25 (UniProt Q14258)
inactive: [1] 0.049 | [2] -0.005 | [3] -0.014 | [4] -0.025 | Nexturastat A 0.253 | vemurafenib 0.037 | [5] 0.04 | [6] 0.13 | givinostat 0.08 | barasertib -0.033

TRIM24 (UniProt O15164)
inactive: [1] 0.011 | [2] -0.039 | [3] 0.003 | [4] -0.074 | Nexturastat A -0.241 | vemurafenib -0.009 | [5] -0.11 | [6] 0.067 | givinostat 0.019 | barasertib 0.061

TPMT (UniProt P51580)
inactive: [1] -0.004 | [2] -0.003 | [3] 0.008 | [4] 0.046 | Nexturastat A -0.158 | vemurafenib 0.059 | [5] 0.07 | [6] 0.026 | givinostat -0.037 | barasertib 0.011

TRPC4AP (UniProt Q8TEL6)
inactive: [1] 0.115 | [2] -0.115 | [3] -0.013 | [4] -0.047 | Nexturastat A 0.22 | vemurafenib -0.004 | [5] 0 | [6] 0.043 | givinostat 0.12

TPX2 (UniProt Q9ULW0)
inactive: [1] 0.009 | [2] 0.026 | [3] -0.039 | [4] 0.009 | Nexturastat A -0.035 | vemurafenib -0.036 | [5] -0.019 | [6] -0.055 | givinostat -0.165 | barasertib -0.115

TRIP10 isoform 2 (UniProt Q15642)
inactive: [1] -0.068 | [2] -0.04 | [3] 0.019 | [4] 0.046 | Nexturastat A 0.12 | vemurafenib 0.026 | [5] 0.177 | [6] 0.004 | givinostat 0.01 | barasertib 0.011

TRIM28 (UniProt Q13263)
inactive: [1] 0.013 | [2] -0.049 | [3] 0.013 | [4] 0.041 | Nexturastat A -0.059 | vemurafenib 0.078 | [5] 0.075 | [6] 0.012 | givinostat 0.039 | barasertib 0.04

TPP1 (UniProt O14773)
inactive: [1] 0.006 | [2] 0.037 | [3] 0.02 | [4] 0.03 | Nexturastat A -0.007 | vemurafenib -0.006 | [5] -0.021 | [6] 0 | givinostat -0.015 | barasertib -0.018

TPI1 (UniProt P60174)
inactive: [1] -0.004 | [2] 0 | [3] 0.009 | [4] 0.011 | Nexturastat A -0.02 | vemurafenib -0.018 | [5] -0.034 | [6] -0.049 | givinostat 0.006 | barasertib -0.004

TRMT1L (UniProt Q7Z2T5)
inactive: [1] 0.034 | [2] -0.029 | [3] -0.073 | [4] -0.095 | Nexturastat A 0.212 | vemurafenib -0.207 | [5] -0.001 | [6] 0.123 | givinostat -0.008 | barasertib -0.108

TRMT10C (UniProt Q7L0Y3)
inactive: [1] 0.013 | [2] -0.051 | [3] 0.017 | [4] 0.007 | Nexturastat A -0.095 | vemurafenib 0.015 | [5] 0.042 | [6] -0.013 | givinostat -0.022 | barasertib 0.041

TPST2 (UniProt O60704)
inactive: [1] -0.026 | [2] -0.025 | [3] -0.034 | [4] 0.07 | Nexturastat A -0.016 | vemurafenib -0.013 | [5] -0.015 | [6] -0.087 | givinostat 0.045 | barasertib 0.067

TRAPPC10 (UniProt P48553)
inactive: [1] -0.039 | [2] 0.069 | [3] -0.028 | [4] -0.002 | Nexturastat A 0.069 | vemurafenib 0.035 | [5] 0.025 | [6] -0.047 | givinostat 0.053 | barasertib -0.004

TRMU (UniProt O75648)
inactive: [1] 0.007 | [2] -0.103 | [3] -0.06 | [4] -0.009 | Nexturastat A -0.057 | vemurafenib 0 | [5] -0.047 | [6] 0.047 | givinostat 0.039 | barasertib 0.015

TRIR (UniProt Q9BQ61)
inactive: [1] -0.07 | [2] 0.029 | [3] -0.049 | [4] 0.034 | Nexturastat A 0.016 | vemurafenib -0.047 | [5] -0.113 | [6] -0.097 | givinostat 0.012 | barasertib -0.018

Random excerpt: two records from the list
TRAPPC10 (UniProt P48553)
inactive: [1] -0.039 | [2] 0.069 | [3] -0.028 | [4] -0.002 | Nexturastat A 0.069 | vemurafenib 0.035 | [5] 0.025 | [6] -0.047 | givinostat 0.053 | barasertib -0.004

TRIR (UniProt Q9BQ61)
inactive: [1] -0.07 | [2] 0.029 | [3] -0.049 | [4] 0.034 | Nexturastat A 0.016 | vemurafenib -0.047 | [5] -0.113 | [6] -0.097 | givinostat 0.012 | barasertib -0.018

(listing goes on)

TOMM22 (UniProt Q9NS69)
inactive: [1] -0.087 | [2] -0.082 | [3] 0.054 | [4] 0.016 | Nexturastat A -0.021 | vemurafenib 0.048 | [5] -0.006 | [6] 0.007 | givinostat -0.008 | barasertib 0.109

TOMM7 (UniProt Q9P0U1)
inactive: [1] 0.028 | [2] -0.053 | [3] -0.007 | [4] 0.02 | Nexturastat A 0.052 | vemurafenib 0.221 | [5] -0.065 | [6] -0.019 | givinostat 0.017 | barasertib -0.039

TNFRSF8 (UniProt P28908)
inactive: [1] -0.047 | [2] 0.01 | [3] -0.076 | [4] -0.005 | Nexturastat A 0.008 | vemurafenib -0.028 | [5] -0.015 | [6] 0.031 | givinostat -0.007 | barasertib -0.006

TRMT13 (UniProt Q9NUP7)
inactive: [1] 0 | [2] 0.007 | [3] -0.049 | [4] -0.004 | Nexturastat A -0.016 | vemurafenib 0.076 | [5] 0.002 | [6] -0.009 | givinostat -0.002 | barasertib -0.02

TSC22D1 (UniProt Q15714)
inactive: [1] 0.003 | [2] -0.002 | [3] 0.055 | [4] 0.025 | Nexturastat A -0.075 | vemurafenib -0.054 | [5] 0.136 | [6] -0.011 | givinostat 0.009 | barasertib 0.026

TNFRSF1B (UniProt P20333)
inactive: [1] -0.092 | [2] 0.045 | [3] -0.038 | [4] 0.015 | Nexturastat A 0.037 | vemurafenib -0.042 | [5] 0.073 | [6] -0.048 | givinostat -0.071 | barasertib -0.05

TRAPPC6B (UniProt Q86SZ2)
inactive: [1] 0.022 | [2] -0.01 | [3] 0.049 | [4] 0.07 | Nexturastat A -0.097 | vemurafenib 0.009 | [5] 0.02 | [6] -0.063 | givinostat -0.02 | barasertib 0.008

TNPO1 (UniProt Q92973)
inactive: [1] 0.041 | [2] 0 | [3] 0.037 | [4] 0 | Nexturastat A -0.017 | vemurafenib 0.015 | [5] 0.064 | [6] -0.009 | givinostat 0.015 | barasertib -0.005

TNIK isoform 6 (UniProt Q9UKE5)
inactive: [1] 0.004 | [2] 0.025 | [3] -0.034 | [4] -0.017 | Nexturastat A 0.047 | vemurafenib -0.026 | [5] -0.035 | [6] -0.047 | givinostat 0.015 | barasertib -0.011

TOMM5 isoform 2 (UniProt Q8N4H5)
inactive: [1] -0.009 | [2] 0.367 | [3] 0.005 | [4] 0.084 | Nexturastat A 0.025 | vemurafenib 0 | [5] -0.011 | [6] 0.141 | givinostat -0.029 | barasertib 0.03
